According to article PMC11465927:
No constants are given. Whether binding was seen depends on the method and setting. A result given as binding can be weak or reduced; the word gives no strength.

Columns and labels:
[1] = biological target: Glyma.15G263300 (soybean (Glycine max)); assay: two-hybrid; yeast two-hybrid; baits in pGBKT7 (BD-TPS), preys in pGADT7 (AD-TPSs or AD-p450s); negative controls with empty pGBKT7 or empty pGADT7; positive control AD-T + BD-53
[2] = biological target: Glyma.07G192800 (soybean (Glycine max)) (UniProt K7L2N5); assay: as above

Glyma.20G074400 (from UniProt K7N247)
binding [1]: binds

Glyma.12G140600 (from UniProt K7LUR1)
binding [2]: binds

P450 protein Glyma.09G029400 (from UniProt A0A0R0I304)
binding [2]: binds
